Data published in article doi:10.1101/2023.07.06.547837.
Results are given in words; binding and its absence hold for the method and conditions named. In cells and extracts the contact can be indirect. Some results given as binding are weak or reduced against the parent protein; the word gives no strength. Tags and fused reporters may be left off the sequences shown. One block for each binder: values may come before it.

What was measured:
[1] = target: T1, FLAG-tagged Mon1a (mouse) (UniProt Q6PDG8); test: co-IP
T1 sequence: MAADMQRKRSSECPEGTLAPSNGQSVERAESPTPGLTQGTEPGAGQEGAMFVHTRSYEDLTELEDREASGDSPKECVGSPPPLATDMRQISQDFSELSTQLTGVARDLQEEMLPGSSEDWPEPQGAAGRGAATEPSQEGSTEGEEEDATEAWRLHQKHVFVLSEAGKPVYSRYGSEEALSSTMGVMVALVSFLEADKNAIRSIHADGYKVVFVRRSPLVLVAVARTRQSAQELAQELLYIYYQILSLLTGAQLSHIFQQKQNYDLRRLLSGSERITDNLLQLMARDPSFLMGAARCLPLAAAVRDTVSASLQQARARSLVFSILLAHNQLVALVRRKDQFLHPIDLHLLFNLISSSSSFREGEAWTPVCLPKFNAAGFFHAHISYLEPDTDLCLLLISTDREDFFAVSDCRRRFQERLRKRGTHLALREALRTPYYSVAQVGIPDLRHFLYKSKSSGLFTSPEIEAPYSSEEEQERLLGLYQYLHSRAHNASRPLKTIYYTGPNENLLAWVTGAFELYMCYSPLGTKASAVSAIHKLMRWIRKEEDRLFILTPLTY

c-myc-Fcho2 (mouse) = target: T2, c-myc-Fcho2 (mouse) (UniProt Q3UQN2); test: co-IP
T2 sequence: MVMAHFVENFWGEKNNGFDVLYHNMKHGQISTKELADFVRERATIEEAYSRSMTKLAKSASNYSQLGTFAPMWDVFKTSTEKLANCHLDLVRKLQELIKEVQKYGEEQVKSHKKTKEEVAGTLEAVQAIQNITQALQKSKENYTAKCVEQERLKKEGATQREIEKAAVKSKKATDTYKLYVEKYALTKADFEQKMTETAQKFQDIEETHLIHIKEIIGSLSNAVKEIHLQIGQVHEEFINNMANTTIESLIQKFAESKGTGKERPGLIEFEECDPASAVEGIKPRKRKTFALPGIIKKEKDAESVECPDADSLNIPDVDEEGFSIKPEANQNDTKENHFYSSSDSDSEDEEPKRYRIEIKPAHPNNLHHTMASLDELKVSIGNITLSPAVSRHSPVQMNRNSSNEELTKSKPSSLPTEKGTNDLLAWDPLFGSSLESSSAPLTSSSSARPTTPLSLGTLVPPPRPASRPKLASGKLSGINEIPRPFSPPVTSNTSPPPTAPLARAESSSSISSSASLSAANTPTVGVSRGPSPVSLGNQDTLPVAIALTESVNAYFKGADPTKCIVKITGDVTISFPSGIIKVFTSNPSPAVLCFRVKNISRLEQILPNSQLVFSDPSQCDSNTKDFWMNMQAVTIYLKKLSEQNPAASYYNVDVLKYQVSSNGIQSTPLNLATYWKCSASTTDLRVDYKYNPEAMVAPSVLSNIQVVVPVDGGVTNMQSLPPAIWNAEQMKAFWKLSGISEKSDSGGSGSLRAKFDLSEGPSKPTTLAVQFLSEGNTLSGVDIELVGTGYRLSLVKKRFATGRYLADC

binding [1]: binds
B1: FLAG-tagged Mon1a (protein, UniProt Q6PDG8 1-556)
chain: T1 sequence

binding (c-myc-Fcho2 (mouse)): binds
B2: endogenous Mon1a (protein, UniProt Q6PDG8 1-556)
chain: T1 sequence

binding [1]: binds
B3: endogenous Fcho2 (protein, UniProt Q3UQN2 1-809)
chain: T2 sequence
